Among the data in paper doi:10.1101/2021.09.24.461724 are binding values, retold here.

These are yes or no findings as the source states them, for the method shown. Binding seen in cells or lysates may run through a third protein. Some entries that bind do so weakly or less than the wild type. Tags and fused reporters may be left off the sequences shown.

This test addresses T1, LIP1 full-length ORF fused upstream of the N-terminal region of YFP (LIP1-N) (Arabidopsis thaliana) (UniProt Q9ZWT1).
T1 sequence: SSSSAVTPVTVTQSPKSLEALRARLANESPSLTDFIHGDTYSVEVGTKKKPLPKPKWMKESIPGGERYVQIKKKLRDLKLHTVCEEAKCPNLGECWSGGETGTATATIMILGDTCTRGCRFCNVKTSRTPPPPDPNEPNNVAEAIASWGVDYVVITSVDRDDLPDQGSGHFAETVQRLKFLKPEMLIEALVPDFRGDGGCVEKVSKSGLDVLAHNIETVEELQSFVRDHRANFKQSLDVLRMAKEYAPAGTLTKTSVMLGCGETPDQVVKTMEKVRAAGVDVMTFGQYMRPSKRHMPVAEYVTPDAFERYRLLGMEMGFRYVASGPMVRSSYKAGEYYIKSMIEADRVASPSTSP
Kind of test: split reporter.

B1: NFU5 full-length ORF fused upstream of the C-terminal region of YFP (NFU5-C) (protein, UniProt Q9C8J2 62-275)
chain: SSFPFNWIEQRRTMFIQTQSTPNPSSLMFSPGKPVMEIGSADFPNSRSAMSSPLAKAIFAIDGVVRVFYGSDFVTVTKSDDVTWDILKPDIFAVVMDFYSSGQPLFLDSQATAAKDTAIHEDDSETVAMIKELLETRIRPSVQDDGGDIEYCGFDTETGIVKLRMQGACSGCPSSSVTLKSGIENMLMHYVSEVKGVEQEFDGEEEGTSSGPME
Consider B1, for which the binding entry is recorded as “binds”.

B2: NFU4 full-length ORF fused upstream of the C-terminal region of YFP (NFU4-C) (protein, UniProt Q9LIG6 49-283)
chain: LNSRTKDSALPSLNSSLLAQKWNFLGGQRRTMFIQTQSTPNPSSLMFYPGKPVMEVGSADFPNVRSALGSPLAKSIYSIDGVVRVFFGSDFVTVTKSDDVSWDILKPEIFAAVMDFYSSGQPLFLDSQAAAAKDTAISEDDSETVAMIKELLETRIRPAVQDDGGDIEYCGFDPESGIVKLRMQGACSGCPSSSVTLKSGIENMLMHYVSEVKGVEQEFDGEDEEGTLSGEMRVE
For B2, the binding result was “binds”.
